According to PubChem BioAssay AID720504 (National Center for Advancing Translational Sciences (NCATS), 2013):
Screen size: about 360,000 compounds; about 10,000 (2.8%) were called active. The shares of active, inactive and inconclusive entries below differ from those in the screen. Calls come from the whole dose curve; as a rule, active = well fitted inhibition curve with a large enough effect; inconclusive = small, poorly fitted or top-dose-only effect; inactive = flat fitted curve, though single readings scatter. A potency beside an inconclusive call is a rough fit, not a confirmed value.

Chains of the proteins cited; added tags and fusions are not shown.
UniProt P53350, whole entry, looked up: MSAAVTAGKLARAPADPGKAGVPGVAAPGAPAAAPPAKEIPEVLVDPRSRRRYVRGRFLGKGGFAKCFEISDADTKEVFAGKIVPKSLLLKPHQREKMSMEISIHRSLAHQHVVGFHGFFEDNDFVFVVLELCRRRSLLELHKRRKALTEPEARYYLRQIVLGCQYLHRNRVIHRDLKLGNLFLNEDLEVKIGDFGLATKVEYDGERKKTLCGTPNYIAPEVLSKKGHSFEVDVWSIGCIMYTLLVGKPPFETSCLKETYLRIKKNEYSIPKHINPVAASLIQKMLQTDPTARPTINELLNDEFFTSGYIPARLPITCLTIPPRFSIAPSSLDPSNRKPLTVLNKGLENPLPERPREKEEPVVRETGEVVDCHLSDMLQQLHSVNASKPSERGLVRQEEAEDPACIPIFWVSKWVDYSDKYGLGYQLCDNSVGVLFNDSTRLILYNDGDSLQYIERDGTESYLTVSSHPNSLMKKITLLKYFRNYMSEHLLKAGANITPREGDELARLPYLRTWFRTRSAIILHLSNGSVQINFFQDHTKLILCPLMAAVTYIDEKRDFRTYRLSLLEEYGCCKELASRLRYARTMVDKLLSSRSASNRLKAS

target: Serine/threonine-protein kinase PLK1 (Homo sapiens) (UniProt P53350); assay: qHTS for Inhibitors of PLK1-PDB (polo-like kinase 1 - polo-box domain): Primary Screen; settings: Plk1 PBD binding of FITC phosphopeptide, fluorescence polarization; note: nearly all actives have a fitted effect of over 65% in size; for max response, negative = inhibition: series mostly up to about 57 µM
% is set by controls: 0 for no effect and ±100 for the full control effect; potency is the fitted concentration of half-maximal effect.

SMILES	Potency	max response, negative = inhibition
CC(C)(c1ccccc1)c1ccc(OCc2ccc(C(=O)O)o2)cc1	inconclusive: 37.7 µM [inhibitor, single point]	
N#Cc1ccc(CSc2nnc3[nH]c(=O)cc(N)n23)cc1		inconclusive: -32.1% [inhibitor]
O=S(=O)(O)c1cc(O)c2cc(Nc3ccccc3)ccc2c1	active: 18.9 µM	
COc1ccc(NC(=O)Nc2ccccc2SC)cc1OC	inconclusive: 26.7 µM [inhibitor, partial curve]	
O=C(/C=C/c1ccco1)N(c1ccccn1)c1ccccn1	inconclusive: 26.7 µM [inhibitor, partial curve]	
Cc1ccc(NS(=O)(=O)c2ccc(C(=O)N3CCN(c4ncccn4)CC3)cc2)cc1	inconclusive: 15 µM [inhibitor, partial curve]	
CCC(=O)Nc1cc(-c2nnc(OC)c3ccccc23)ccc1N1CCOCC1	inconclusive: 29.9 µM [inhibitor, single point]	
O=C(NCc1cccs1)C1CCN(c2nccs2)CC1	inconclusive: 26.7 µM [inhibitor, single point]	
COc1ccc(CNC(=O)COC(=O)c2cccnc2Nc2cccc(C(F)(F)F)c2)cc1	inconclusive: 26.7 µM [inhibitor, partial curve]	
CN(C(=O)CSc1nc(-c2ccc(C(C)(C)C)cc2)c(C#N)c(=O)[nH]1)C1CCCCC1	inconclusive: 23.8 µM [inhibitor, single point]	
Cc1cc(Cl)ccc1OCCCC(=O)NCc1ccccn1	inconclusive: 37.7 µM [inhibitor, single point]	
CCOC(=O)c1c(NC(=O)c2cc(CC(C)C)on2)sc(C(C)=O)c1C	inconclusive: 37.7 µM [inhibitor, single point]	
CCN(CC(=O)Nc1ccccc1C(F)(F)F)C(=O)C1=COCCO1		inactive: -4.91%
Cc1cc(C)n(-c2nnc(NC34CC5CC(CC(C5)C3)C4)nn2)n1	inconclusive: 37.7 µM [inhibitor, single point]	
COc1ccc(S(=O)(=O)Nc2cc([N+](=O)[O-])ccc2OC)cc1		inactive: -1.16%
CCCC(=O)N1CCCC(c2nc(-c3cccs3)no2)C1 (stereo not drawn)	active: 29.9 µM	
[O-]/C(=C(\C(=S)Nc1cccc2ccccc12)[n+]1ccccc1)c1cccs1		inactive: -20.1%
C/C(CC(=O)Nc1ccc2c(c1)OCO2)=N\NC(=O)OC(C)(C)C	inconclusive: 21.2 µM [inhibitor, partial curve]	
CN1c2ccccc2C(O)=C(C(=S)Nc2ccc(Cl)cc2)S1(=O)=O	inconclusive: 21.2 µM [inhibitor, single point]	
O=C(CSCCN1C(=O)c2ccccc2C1=O)Nc1ccc2ccccc2c1		inconclusive: -33.2% [inhibitor]
Cc1cc(Br)cn2c(Cc3ccsc3)c(-c3ccc(F)cc3)nc12	inconclusive: 26.7 µM [inhibitor, single point]	
CCN(C(=O)CCN1C(=O)S/C(=C\c2ccccc2)C1=O)C1CCS(=O)(=O)C1 (stereo not drawn)		inactive: -9.16%
Cc1ccc(C2c3[nH]c4ccccc4c3C[C@H]3C(=O)N(c4ccccc4C(=O)N4CCC[C@@H]4C(=O)O)C(=O)N23)cc1 (stereo partly drawn)	inconclusive: 59.7 µM [inhibitor, partial curve]	

SMILES	Potency	max response, negative = inhibition
CCc1cccc(C)c1NC(=O)C1CCN(c2nn3c(=O)cc(C)nc3s2)CC1	inconclusive: 29.9 µM [inhibitor, partial curve]	
O=C(CCN1CCC2CCC(C2)C1)c1ccc(F)cc1 (stereo not drawn)	active: 8.44 µM	
Fc1ccc(N/N=C2/CCSc3sccc32)c(F)c1	inconclusive: 29.9 µM [inhibitor, single point]	
Cc1cccc(-c2nc(CS(=O)CC(=O)NC(C)CCc3ccccc3)c(C)o2)c1 (stereo not drawn)	inconclusive: 42.3 µM [inhibitor, single point]	
NS(=O)(=O)c1ccc(-n2cccc2C=O)cc1	inconclusive: 26.7 µM [inhibitor, single point]	
CCN(CC)S(=O)(=O)c1cccc(C(=O)Nc2cc3oc4ccccc4c3cc2OC)c1		inactive: 3.6%
CC(C)OCCCNc1ncnc2c1nc1n2CCCC1		inactive: 0.788%
CCN(CC)c1ccc(C=C2C(=O)OC3(CCCC3)OC2=O)cc1	inconclusive: 2.67 µM [inhibitor, partial curve]	
O=C(CCN1C(=O)/C(=C/c2ccc3c(c2)OCO3)SC1=S)Nc1ccc(C(=O)O)cc1		inactive: -29%
Cc1nc2ccccc2c(=O)n1CCCn1ccnc1	active: 21.2 µM	
Cc1c(NC(=O)C(C)OC(=O)c2cc3c4ccccc4n(C)c3s2)c(=O)n(-c2ccccc2)n1C (stereo not drawn)		inconclusive: -31.2% [inhibitor]
CC(C)CC1(C)NC(=O)N(CC(=O)Nc2ccc3c(c2)CCC3)C1=O (stereo not drawn)		inconclusive: -16.4% [inhibitor]
CCCCOC(=O)CSc1nc2c(c(=O)[nH]c(=O)n2C)n1C/C=C(\C)Cl	inconclusive: 23.8 µM [inhibitor, partial curve]	
COC(=O)C1=C(C(=O)OC)C2(OC1c1ccc(Br)cc1)C(=O)c1ccccc1C2=O (stereo not drawn)	inconclusive: 67 µM [inhibitor, partial curve]	
O=C(CCc1ccc(O)c(O)c1)N/N=C/c1cc2c(cc1[N+](=O)[O-])OCO2	inconclusive: 29.9 µM [inhibitor, single point]	
CN(c1ccccc1)S(=O)(=O)c1ccc(C(=O)Nc2nnc(-c3ccco3)o2)cc1	inconclusive: 42.3 µM [inhibitor, partial curve]	
CCOC(=O)CSc1ccc2nnc(-c3ccccc3)n2n1		inactive: -2.21%
O=C(NC(c1ccccc1)c1ccccc1)N1CCOCC1	inconclusive: 26.7 µM [inhibitor, single point]	
N#Cc1c(N)[nH]c(=S)c(C#N)c1-c1ccccc1	inconclusive: 9.47 µM [inhibitor, partial curve]	
COc1ccc(CCN2CC(C(=O)OCC(=O)N(C)CC(=O)Nc3ccccc3Cl)CC2=O)cc1OC (stereo not drawn)		inactive: -2.19%
O=C(CN1CCC(NC(=O)C2CCCCC2)CC1)Nc1ccccc1	inconclusive: 26.7 µM [inhibitor, single point]	
Cc1cc2nc3s/c(=C/c4ccc(-c5ccccc5C(=O)O)o4)c(=O)n3c2cc1C	inconclusive: 15 µM [inhibitor, full curve]	
Cc1nc2ncnn2c(C)c1CCC(=O)NCCc1ccccc1	active: 23.8 µM	

SMILES	Potency	max response, negative = inhibition
CCOC(=O)CN(c1sc(C)c(C)c1C(=O)OCC)S(=O)(=O)c1ccc(C)cc1		inactive: -5.11%
COc1ccc(OC)c(C(c2c(O)nc(SC)[nH]c2=O)c2c(O)nc(SC)[nH]c2=O)c1	inconclusive: 21.2 µM [inhibitor, partial curve]	
Cc1ccccc1Nc1cc2ccccc2c(=O)[nH]1	inconclusive: 16.8 µM [inhibitor, partial curve]	
CNC(=S)N(Cc1ccc(OC)cc1)Cc1cc2ccc(C)cc2[nH]c1=O	active: 23.8 µM	
COc1cc2cc(C(c3nnnn3C(C)(C)C)N3CCc4ccccc4C3)c(=O)[nH]c2cc1OC (stereo not drawn)	inconclusive: 37.7 µM [inhibitor, single point]	
CCc1ccc(NC(=O)CS(=O)CC(=O)NC(C)CCc2ccco2)cc1 (stereo not drawn)	inconclusive: 13.4 µM [inhibitor, partial curve]	
COCc1nnc(NC(=O)c2cc(OC)c(OC)cc2[N+](=O)[O-])s1	active: 29.9 µM	
Cc1[nH]nc(SCC(=O)NCc2ccc(Cl)cc2)c1[N+](=O)[O-]		inactive: -6.42%
COCCn1c(SCCN2CCOCC2)nc2c1c(=O)[nH]c(=O)n2C	active: 11.9 µM	
CCOC(=O)c1c(C)[nH]c(C(=O)COC(=O)c2cc(C)oc2C)c1C		inactive: -9.24%
O=C(Oc1ccc(Br)cc1C(=S)N1CCOCC1)c1cccc([N+](=O)[O-])c1	active: 11.9 µM	
COC(=O)C(C(=O)OC)C1CCCCC1NS(=O)(=O)c1ccc(C)cc1 (stereo not drawn)		inactive: -4.98%
O=Cc1cccc(OC(=O)/C=C/c2ccco2)c1	inconclusive: 23.8 µM [inhibitor, partial curve]	
COc1ccc(NS(=O)(=O)c2ccc3nc(COc4ccc(C#N)cc4)[nH]c3c2)cc1	inconclusive: 26.7 µM [inhibitor, single point]	
CCC(C)NC(=O)Cn1cnc2sc(C)c(S(=O)(=O)N3CCCCC3)c2c1=O (stereo not drawn)	inconclusive: 26.7 µM [inhibitor, single point]	
Cn1c2c(c(=O)n(C)c1=O)[C@@]1(C(=O)Nc3ccccc31)C(C#N)=C(N)O2	inconclusive: 11.9 µM [inhibitor, partial curve]	
ClCc1nc2ccccc2n1Cc1ccccc1	inconclusive: 21.2 µM [inhibitor, partial curve]	
Cc1ccc(S(=O)(=O)Oc2ccc(/C=C3/C(=N)N4C(=NC3=O)SN=C4S(C)(=O)=O)cc2)cc1	active: 21.2 µM	
O=C(NCc1ccc(F)cc1)C1CCCN1C(=O)Nc1cccc(F)c1 (stereo not drawn)		inactive: -8.38%
O=C(NC1CCCCC1)c1ccc(-c2cccc([N+](=O)[O-])c2)o1		inactive: -4.96%
CC(C)CCN(CC(=O)NCc1ccc(F)cc1)S(=O)(=O)c1ccccc1F		inactive: -3.83%
CC(C)(C)C(=O)NCCN1C(=O)S/C(=C\c2ccc([N+](=O)[O-])cc2)C1=O	inconclusive: 4.23 µM [inhibitor, single point]	

Some of these compounds in order of molecular weight, ascending.
SMILES	Potency	max response, negative = inhibition
Cc1ccccc1Nc1cc2ccccc2c(=O)[nH]1	inconclusive: 16.8 µM [inhibitor, partial curve]	
ClCc1nc2ccccc2n1Cc1ccccc1	inconclusive: 21.2 µM [inhibitor, partial curve]	
O=C(NC1CCCCC1)c1ccc(-c2cccc([N+](=O)[O-])c2)o1		inactive: -4.96%
CCc1ccc(NC(=O)CS(=O)CC(=O)NC(C)CCc2ccco2)cc1 (stereo not drawn)	inconclusive: 13.4 µM [inhibitor, partial curve]	
CCOC(=O)CN(c1sc(C)c(C)c1C(=O)OCC)S(=O)(=O)c1ccc(C)cc1		inactive: -5.11%
